Assay [1] concerns the target Full length C4A fused with C-terminal gD tag and GPI anchor, expressed on transfected 293T cells (human; Human alphaherpesvirus 1) (UniProt P0C0L4). The assay can be described thus: flow cytometry: soluble mIgG2a-tagged PILRA variant on C4A-transfected 293T cells, FITC anti-mIgG2a; MFI as % of G78 (= 100 %).
Assay [2] shares this target. The assay can be described thus: flow cytometry (FACS), soluble mIgG2a-tagged PILRA on C4A-transfected 293T cells.
Assay [3] has the same target. The assay can be described thus: flow cytometry (FACS), soluble mIgG2a-tagged PILRA on ligand-transfected 293T cells.
The target is the same in assay [4]. The assay can be described thus: flow cytometry: soluble mIgG2a-tagged G78 PILRA on 293T cells transfected with full length C4A-gD-GPI, FITC anti-mIgG2a; MFI as fold of vector control.

By UniProt entry, the sequences of proteins in these tests, tags left out. Where a name states a change or a piece, a line headed by the entry shows the natural chain unless it says otherwise.
UniProt P0C0L4: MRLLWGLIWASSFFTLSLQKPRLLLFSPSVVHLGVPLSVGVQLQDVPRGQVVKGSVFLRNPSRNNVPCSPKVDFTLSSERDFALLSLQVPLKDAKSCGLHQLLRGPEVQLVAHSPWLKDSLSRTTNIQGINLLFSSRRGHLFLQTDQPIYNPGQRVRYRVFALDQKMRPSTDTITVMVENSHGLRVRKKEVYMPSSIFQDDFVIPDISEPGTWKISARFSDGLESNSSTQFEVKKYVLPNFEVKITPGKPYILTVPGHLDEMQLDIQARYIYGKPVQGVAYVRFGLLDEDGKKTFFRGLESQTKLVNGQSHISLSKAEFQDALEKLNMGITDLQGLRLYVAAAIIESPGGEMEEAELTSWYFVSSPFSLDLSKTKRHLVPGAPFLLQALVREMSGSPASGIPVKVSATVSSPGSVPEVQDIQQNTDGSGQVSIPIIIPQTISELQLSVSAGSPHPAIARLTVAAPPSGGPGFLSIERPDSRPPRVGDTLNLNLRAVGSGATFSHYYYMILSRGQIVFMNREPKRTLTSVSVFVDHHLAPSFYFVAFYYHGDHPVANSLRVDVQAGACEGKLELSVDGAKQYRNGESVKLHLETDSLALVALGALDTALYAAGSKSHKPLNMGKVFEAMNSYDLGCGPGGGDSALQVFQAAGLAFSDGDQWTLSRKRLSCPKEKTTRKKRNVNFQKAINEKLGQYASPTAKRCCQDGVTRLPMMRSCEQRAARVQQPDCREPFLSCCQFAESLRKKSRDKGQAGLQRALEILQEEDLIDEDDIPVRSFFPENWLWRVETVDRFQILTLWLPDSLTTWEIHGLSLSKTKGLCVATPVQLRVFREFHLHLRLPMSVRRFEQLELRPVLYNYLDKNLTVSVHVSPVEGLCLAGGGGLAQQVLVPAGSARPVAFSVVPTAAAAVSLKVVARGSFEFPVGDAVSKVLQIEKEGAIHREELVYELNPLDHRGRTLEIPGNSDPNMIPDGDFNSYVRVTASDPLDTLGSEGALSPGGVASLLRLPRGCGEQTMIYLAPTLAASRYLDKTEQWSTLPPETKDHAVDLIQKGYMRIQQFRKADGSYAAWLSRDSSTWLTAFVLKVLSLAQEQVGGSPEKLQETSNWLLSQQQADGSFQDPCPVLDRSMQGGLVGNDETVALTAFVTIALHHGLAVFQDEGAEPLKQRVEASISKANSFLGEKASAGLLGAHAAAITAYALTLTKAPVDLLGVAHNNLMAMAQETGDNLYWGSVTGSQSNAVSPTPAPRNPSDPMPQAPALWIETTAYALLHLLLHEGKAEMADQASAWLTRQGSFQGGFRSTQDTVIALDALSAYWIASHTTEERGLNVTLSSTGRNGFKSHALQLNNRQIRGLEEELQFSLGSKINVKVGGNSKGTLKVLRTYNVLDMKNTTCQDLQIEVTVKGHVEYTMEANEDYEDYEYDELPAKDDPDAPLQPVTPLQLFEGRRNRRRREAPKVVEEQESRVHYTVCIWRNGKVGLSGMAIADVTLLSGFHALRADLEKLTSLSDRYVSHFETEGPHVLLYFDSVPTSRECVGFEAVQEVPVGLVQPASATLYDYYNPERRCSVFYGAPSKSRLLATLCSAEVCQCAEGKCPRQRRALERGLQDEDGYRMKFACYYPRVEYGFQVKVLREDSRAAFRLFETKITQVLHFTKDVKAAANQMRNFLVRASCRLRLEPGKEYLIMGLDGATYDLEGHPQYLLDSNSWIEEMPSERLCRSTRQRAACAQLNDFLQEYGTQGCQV
UniProt Q9UKJ1: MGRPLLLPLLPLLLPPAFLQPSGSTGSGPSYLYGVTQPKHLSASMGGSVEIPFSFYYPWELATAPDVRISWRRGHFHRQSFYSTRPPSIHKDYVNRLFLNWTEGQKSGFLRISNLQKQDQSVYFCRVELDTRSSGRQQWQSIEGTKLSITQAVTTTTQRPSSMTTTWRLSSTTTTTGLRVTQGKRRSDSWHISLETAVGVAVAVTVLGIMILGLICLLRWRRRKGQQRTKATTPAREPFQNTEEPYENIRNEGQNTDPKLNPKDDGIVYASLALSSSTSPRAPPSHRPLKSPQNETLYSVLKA

No constants are given. Whether binding was seen depends on the method and setting. Some binding calls cover weakened binding; strength is not graded here.

“PILRA R78 variant extracellular domain fused to murine IgG2a Fc (from UniProt Q9UKJ1 20-196) (Fc fusion)”: the binding result in assay [1] and in assay [2] was “binds” each time. On to “PILRA G80 variant extracellular domain fused to murine IgG2a Fc (from UniProt Q9UKJ1 20-196) (Fc fusion)”, for which, in assay [1], the binding result is recorded as “binds”. As to “PILRA G78 variant extracellular domain fused to murine IgG2a Fc (from UniProt Q9UKJ1 20-196) (Fc fusion)”, the binding result in assay [3] and in assay [4] was “binds” each time.
